Results from paper PMC12189954.
These are yes or no findings as the source states them, for the method shown. In cells and extracts the contact can be indirect. Here binding means that the protein was enriched with, or labelled near, the bait; the list need not be complete. Tags and fused reporters may be left off the sequences shown.

Protein sequences, listed by entry. Tags and fused reporters are not part of them. Residues count along the entry.
UniProt P42227: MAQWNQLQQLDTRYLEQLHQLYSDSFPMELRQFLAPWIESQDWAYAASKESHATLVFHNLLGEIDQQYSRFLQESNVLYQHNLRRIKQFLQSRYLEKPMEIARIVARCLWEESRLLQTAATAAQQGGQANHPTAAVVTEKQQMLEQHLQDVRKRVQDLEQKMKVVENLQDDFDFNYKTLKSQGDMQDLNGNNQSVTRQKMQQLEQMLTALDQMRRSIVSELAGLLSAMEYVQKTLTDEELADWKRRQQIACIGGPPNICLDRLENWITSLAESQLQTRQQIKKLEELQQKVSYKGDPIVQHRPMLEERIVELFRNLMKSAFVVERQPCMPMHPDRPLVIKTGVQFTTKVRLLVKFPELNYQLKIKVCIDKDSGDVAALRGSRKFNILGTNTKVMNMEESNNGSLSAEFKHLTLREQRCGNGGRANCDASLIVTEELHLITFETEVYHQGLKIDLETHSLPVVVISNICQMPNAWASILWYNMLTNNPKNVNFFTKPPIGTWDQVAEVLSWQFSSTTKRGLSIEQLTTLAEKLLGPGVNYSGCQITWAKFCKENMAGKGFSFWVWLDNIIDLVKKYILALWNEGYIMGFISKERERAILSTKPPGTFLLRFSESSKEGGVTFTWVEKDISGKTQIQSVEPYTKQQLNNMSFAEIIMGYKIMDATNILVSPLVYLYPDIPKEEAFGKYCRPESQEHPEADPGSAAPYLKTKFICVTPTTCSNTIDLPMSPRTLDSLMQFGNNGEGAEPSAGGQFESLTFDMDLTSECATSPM
UniProt P09103, residues 20-509: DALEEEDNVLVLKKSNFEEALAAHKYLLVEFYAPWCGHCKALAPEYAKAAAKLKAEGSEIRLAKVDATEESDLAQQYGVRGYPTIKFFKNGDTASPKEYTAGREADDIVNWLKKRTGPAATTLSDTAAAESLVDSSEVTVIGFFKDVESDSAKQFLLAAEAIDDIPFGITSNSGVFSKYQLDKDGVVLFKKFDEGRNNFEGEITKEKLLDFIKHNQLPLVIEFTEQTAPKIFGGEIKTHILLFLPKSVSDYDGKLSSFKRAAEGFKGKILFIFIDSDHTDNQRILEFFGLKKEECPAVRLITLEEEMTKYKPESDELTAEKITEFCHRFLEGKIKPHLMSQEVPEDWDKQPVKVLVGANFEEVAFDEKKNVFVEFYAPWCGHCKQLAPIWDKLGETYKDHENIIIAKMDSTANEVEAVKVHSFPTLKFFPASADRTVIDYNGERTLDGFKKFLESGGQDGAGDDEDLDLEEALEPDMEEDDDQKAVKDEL
UniProt Q9ERG0: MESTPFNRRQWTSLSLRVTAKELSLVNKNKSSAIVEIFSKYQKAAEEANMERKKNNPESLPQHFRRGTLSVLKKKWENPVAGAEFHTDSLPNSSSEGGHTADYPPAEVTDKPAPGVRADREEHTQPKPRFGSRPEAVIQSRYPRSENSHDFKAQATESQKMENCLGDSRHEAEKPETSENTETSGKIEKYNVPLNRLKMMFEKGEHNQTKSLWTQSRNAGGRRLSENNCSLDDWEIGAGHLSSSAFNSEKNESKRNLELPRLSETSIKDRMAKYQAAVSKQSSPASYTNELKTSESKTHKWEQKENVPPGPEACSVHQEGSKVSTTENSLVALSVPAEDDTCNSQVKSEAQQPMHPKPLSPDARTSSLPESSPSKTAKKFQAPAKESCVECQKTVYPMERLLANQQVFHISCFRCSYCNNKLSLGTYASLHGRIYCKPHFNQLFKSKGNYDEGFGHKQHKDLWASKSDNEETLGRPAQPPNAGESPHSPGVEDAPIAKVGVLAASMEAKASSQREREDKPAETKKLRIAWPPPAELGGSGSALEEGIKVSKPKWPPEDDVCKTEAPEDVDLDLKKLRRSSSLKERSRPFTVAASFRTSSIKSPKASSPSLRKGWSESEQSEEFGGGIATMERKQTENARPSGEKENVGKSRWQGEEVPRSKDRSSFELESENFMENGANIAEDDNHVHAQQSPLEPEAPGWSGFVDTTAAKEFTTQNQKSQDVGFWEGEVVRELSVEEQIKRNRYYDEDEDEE
UniProt Q61937: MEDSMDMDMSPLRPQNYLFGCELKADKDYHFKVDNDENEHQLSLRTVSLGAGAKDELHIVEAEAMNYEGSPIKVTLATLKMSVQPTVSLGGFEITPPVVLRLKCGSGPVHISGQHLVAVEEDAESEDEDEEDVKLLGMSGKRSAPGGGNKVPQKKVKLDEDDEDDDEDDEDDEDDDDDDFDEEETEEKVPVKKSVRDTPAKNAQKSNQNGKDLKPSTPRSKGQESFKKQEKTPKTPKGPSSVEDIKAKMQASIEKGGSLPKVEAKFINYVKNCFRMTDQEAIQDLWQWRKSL
UniProt P57780: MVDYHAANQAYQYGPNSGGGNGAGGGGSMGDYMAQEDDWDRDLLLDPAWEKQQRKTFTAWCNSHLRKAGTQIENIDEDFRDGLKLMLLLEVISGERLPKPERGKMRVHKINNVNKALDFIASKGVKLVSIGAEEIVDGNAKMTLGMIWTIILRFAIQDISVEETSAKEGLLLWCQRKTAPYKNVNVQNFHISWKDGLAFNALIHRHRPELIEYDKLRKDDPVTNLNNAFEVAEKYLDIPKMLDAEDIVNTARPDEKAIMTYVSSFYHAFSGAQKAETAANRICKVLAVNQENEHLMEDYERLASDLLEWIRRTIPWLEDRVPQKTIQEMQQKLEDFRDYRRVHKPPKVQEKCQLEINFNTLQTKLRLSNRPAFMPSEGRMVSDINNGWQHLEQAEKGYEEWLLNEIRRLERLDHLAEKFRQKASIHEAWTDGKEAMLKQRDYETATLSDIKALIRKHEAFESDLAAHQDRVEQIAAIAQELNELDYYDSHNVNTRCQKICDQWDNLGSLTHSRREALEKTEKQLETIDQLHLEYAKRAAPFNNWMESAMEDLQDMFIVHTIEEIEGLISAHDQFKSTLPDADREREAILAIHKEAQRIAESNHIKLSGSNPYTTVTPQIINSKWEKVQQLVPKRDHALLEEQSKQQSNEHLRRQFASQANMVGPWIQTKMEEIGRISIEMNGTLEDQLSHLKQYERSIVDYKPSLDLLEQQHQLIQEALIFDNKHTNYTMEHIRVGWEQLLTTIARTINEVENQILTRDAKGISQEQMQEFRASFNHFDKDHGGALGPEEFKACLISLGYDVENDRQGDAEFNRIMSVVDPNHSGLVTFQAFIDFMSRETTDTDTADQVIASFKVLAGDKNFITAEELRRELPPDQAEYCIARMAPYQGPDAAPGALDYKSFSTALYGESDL

Biological target: T1, Flag-YOD1 (ubiquitin thioesterase OTU1), expressed in HL-1 cells (UniProt Q8CB27)
T1 sequence: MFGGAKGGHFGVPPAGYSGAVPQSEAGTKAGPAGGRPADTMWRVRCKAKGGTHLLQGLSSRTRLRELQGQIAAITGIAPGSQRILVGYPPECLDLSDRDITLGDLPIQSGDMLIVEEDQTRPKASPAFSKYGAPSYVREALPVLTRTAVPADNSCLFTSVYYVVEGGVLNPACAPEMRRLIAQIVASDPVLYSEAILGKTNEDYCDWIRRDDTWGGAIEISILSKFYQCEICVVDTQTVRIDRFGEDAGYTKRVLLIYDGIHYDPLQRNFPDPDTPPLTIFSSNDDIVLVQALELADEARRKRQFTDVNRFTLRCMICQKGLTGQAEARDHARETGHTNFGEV
Assay: affinity purification with mass spectrometry; HL-1 cells transfected with Flag-vector or Flag-YOD1, Ang II stimulation (1 μM for 24 hours); anti-Flag antibodies and Protein G–Sepharose beads; bound proteins by LC-MS/MS (interactome)

binding | Substance
binds | signal transducer and activator of transcription 3 (STAT3), endogenous in HL-1 cells (from UniProt P42227 1-770)
binds | protein disulfide isomerase (P4HB) (from UniProt P09103 20-509)
binds | Lin-11 Isl-1 Mec-3 (LIM domain) and actin-binding protein 1 (LIMA1) (from UniProt Q9ERG0 1-753)
binds | nucleophosmin (NPM1) (from UniProt Q61937 1-292)
binds | α-actinin 4 (ACTN4) (from UniProt P57780 1-912)
